According to PubChem BioAssay AID1347423 (Functional Genomics Laboratory (NCATS/FGL), 2020):
About 210 (0.4%) of roughly 52,000 sequences were called active.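 Rule for the calls: active = gene whose silencing raises cell survival under the drug, median off-target-corrected z-score across its silencing RNAs 2 or more; inactive = the rest.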 The list shows a part of the results.

Test: Resistance to Poly (ADP-Ribose) Polymerase inhibitor: Gene Identification via Genome-wide siRNA Screen
Settings: mouse BRCA2 R2336H ES cells, olaparib, CellTiter-Glo viability; stronger effect = higher value
In short: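 Genome-wide siRNA screen (3 siRNAs/gene, 20 nM) in mouse ES cells carrying hypomorphic BRCA2 R2336H; olaparib 500 nM added 48 h post-transfection, CellTiter-Glo viability 72 h later. Normalized to plate-median negative control; MAD z-scores, gene median, seed-adjusted.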

| Sequence | z-score |
| --- | --- |
| GCCGCAUAAUCAGAAAGGCTT against Pipox | inactive: 0.183 |
| GGCCAAUGAUGAUAACAAATT against Catnd2 | inactive: 0.564 |
| GCUCGCAUUUCCAUAAUACTT against Gm225 | inactive: -0.805 |
| CCUUAACUAUGGAGGAGUUTT against Rims4 | inactive: -0.34 |
| CGGCUUCUCUCUUUACACATT against Fosb | inactive: 1.55 |
| CGUCUCUGCUGAGAACAUGTT against Kcnk15 | active: 2.15 |
| GGUGAAACUUGUUGAUUUUTT against Map4k4 | inactive: 1.59 |
| GCUCUAGGCCAGAUGUUACTT against Slc13a3 | inactive: -1.04 |
| CCCUAAAUGCUUCGUAUGCTT against D930036B08Rik | inactive: -0.118 |
| GCAUAGCUCAAAUCAAGGATT against Sik2 | inactive: 1.51 |
| GCAUCAGAUUAGGCAGGAATT against 6030498E09Rik | inactive: -0.849 |
| GCUACAUUUCAUCAGCAAATT against Zfp336 | inactive: 0.508 |
| GGCCAGUGUUACUGAGGAATT against 1700037C18Rik | inactive: -0.513 |
| CGUAGACUCCAAGCUCAAUTT against Ddx54 | inactive: -0.414 |
| GGCACUAAAACAAUCGUCATT against Cyp26a1 | inactive: 0.726 |
| GGCUCUGCUAUUUCUCCUGTT against Olfr17 | inactive: -1.17 |
| GGUUUGCCCUGACACUUGUTT against A330096I21Rik | inactive: -2.25 |
| CCGUUAAGCUCACUUGUCUTT against Notch4 | inactive: -0.159 |
| GGGACCAACAUCAAUAAUGTT against Itih4 | inactive: 1.17 |
| GUUUGCUGCACCCUACUUATT against Hist2h2be | inactive: 1.4 |
| GCUACAUCGCUCUUAUAGCTT against Foxl1 | inactive: 0.432 |
| GGUUAAUCUUAACAACAUCTT against Tmod1 | inactive: 0.0275 |
| GCUUGAGCUUAUUAAUGUUTT against C030032C09Rik | inactive: 0.173 |
| GCUGUUAGGUUCAUUACCATT against Herc2 | inactive: -0.343 |
| CCCAGGCAUACUACAAGGUTT against A330104H05Rik | inactive: -0.768 |
| GGCUUCUAGUGGGAUGUAATT against Dnb5 | inactive: -1.86 |

| Sequence | z-score |
| --- | --- |
| GGACAUGUUCAAUGUGAAUTT against BC022224 | inactive: -0.155 |
| GGAACAAAGGCUGAUCCAGTT against Chrnd | inactive: -0.529 |
| CCUCAUUCAGGGAGUUCCATT against 2200002J24Rik | inactive: -2.37 |
| CCAACAUUCACACAUCUGATT against Syngr2 | inactive: -0.853 |
| GGGCUAUCUCAGGUGGAAUTT against E430012M05Rik | inactive: 1.37 |
| CCAUUAUCCUGGUGUGUAUTT against Olfr1362 | inactive: -1.92 |
| GGUAGACCGUCCGAAAAGATT against D11Wsu47e | inactive: -0.512 |
| CCCGUUCAUAUACUUCUUUTT against Ebi2 | inactive: 0.742 |
| GGAGAAAUUUCUGAGAAGATT against D630035O19Rik | inactive: 0.971 |
| GGCCAAUCAGAUAACUAAATT against 3110002L15Rik | inactive: -1 |
| GGAGACCAUCAUGUCUUUATT against Olfr378 | inactive: 1.21 |
| GGCAUCUUUUGAAACAAUATT against D0H8S2298E | inactive: 0.77 |
| GGGCAUUGUCCGAAUGAAUTT against 4930433N12Rik | inactive: -0.589 |
| GGUACAUGUCACUGUGGCATT against Itgbl1 | inactive: 0.414 |
| GUUGUCCAUAUCAUGUUUGTT against Olfr569 | inactive: -0.804 |
| CGGACAGUUAUUAUGCAUATT against Sdcbp | inactive: 0.165 |
| CCGACAUAUUUGUAGCUGGTT against Cyp2c55 | inactive: -1.07 |
| CCUGGUCACAGGCAUUAAATT against 4930526D03Rik | inactive: -0.226 |
| GGAUGUCACAUGACAGUUUTT against Tmprss4 | inactive: -2.77 |
| GCCGGUGACUUUCUAAUUUTT against BC023823 | inactive: -1.58 |
| GGUGACACAGUACAAGAAGTT against Rpl36a | inactive: 1.33 |
| GGCAGAAUUGGCACAGAAATT against U2af1-rs2 | inactive: -0.239 |
| CGACGUGGCACAGAAUAUCTT against Ssbp1 | inactive: -0.1 |
| GGUGGUCCUGGCCUAUGAATT against Tpi1 | inactive: 1.17 |
| CCAUGUCGUAUGUGAUUCUTT against Hils1 | inactive: 2.07 |
| GGGUCCCAAACAAUAACUUTT against Aebp1 | inactive: 1.05 |

Copied from the list:
In z-score, GGUGACACAGUACAAGAAGTT against Rpl36a is entered as inactive: 1.33
In z-score, GCCGGUGACUUUCUAAUUUTT against BC023823 is entered as inactive: -1.58
In z-score, GGCAUCUUUUGAAACAAUATT against D0H8S2298E is entered as inactive: 0.77
In z-score, GGGCAUUGUCCGAAUGAAUTT against 4930433N12Rik is entered as inactive: -0.589
In z-score, GGAUGUCACAUGACAGUUUTT against Tmprss4 is entered as inactive: -2.77
